Laboratory results: PubChem BioAssay AID1224826 (NIAID, 2016)
Aim: 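Knock-downs that raise or lower Tnf reporter signal after endotoxin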 (primary screen). Cells: RAW264.7 G9 macrophages from mouse bearing reporters for p65 (GFP) and the Tnf promoter (mCherry). Reagents: siRNA pool against mouse genes, 100 nM. Time to read-out: 16 h of LPS stimulation, after 2 days of siRNA transfection. Treatment: bacterial lipopolysaccharide (Salmonella minnesota R595), 10 ng/ml. Read-out: 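Nuclear mCherry signal of the Tnf promoter reporter measured by imaging after background removal, scaled to each plate median and turned into robust z-scores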. Direction: Tnf reporter robust z-score: higher = stronger Tnf promoter reporter signal after LPS. Active means: 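Called active when robust z-score is at most -1.3, matching the median of the Tlr4 knock-down control, or over 3; control wells and wells with under 50 cells never active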. Calls: active = Tnf reporter clearly lowered or raised; inactive = no clear change in Tnf reporter.
In all, the deposit lists about 17,000 reagents; below is a part drawn at random. About 1,110 of all reagents (6.6%) were called active. 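Active means lowered or raised reporter signal; replicate intensities are raw and not normalised per plate.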 Unmarked entries are inactive. Reagents against one gene are numbered here. Not all columns of the deposit are shown.

Against Pramel39-ps, the values are fewer than 50 cells in well fewer than 50 cells per well; well left out of calls.
Spata9 scored Tnf reporter robust z-score 2.19; fewer than 50 cells in well enough cells in well.
After knock-down of Zfp85os, the screen gave fewer than 50 cells in well fewer than 50 cells per well; well left out of calls.
Silencing of Snapc3 resulted in: Tnf reporter robust z-score -0.5; fewer than 50 cells in well enough cells in well.
Knock-down of Pcgf3 gave: fewer than 50 cells in well fewer than 50 cells per well; well left out of calls.
With knock-down of Defb7, the record shows Tnf reporter robust z-score 4.14 (active); fewer than 50 cells in well enough cells in well.
With knock-down of Mob2, the record shows fewer than 50 cells in well fewer than 50 cells per well; well left out of calls.
For Prss30, the values are fewer than 50 cells in well fewer than 50 cells per well; well left out of calls.
For Cacna1s, the values are Tnf reporter robust z-score -1.38 (active); fewer than 50 cells in well enough cells in well.
Against Sqor, the entry reads Tnf reporter robust z-score 4.46 (active); fewer than 50 cells in well enough cells in well.
Cyp2b9 gave Tnf reporter robust z-score -0.72; fewer than 50 cells in well enough cells in well.
Knock-down of Kdm6a came out at: Tnf reporter robust z-score 1.95; fewer than 50 cells in well enough cells in well.
Knock-down of Abhd11 gave: Tnf reporter robust z-score 0.31; fewer than 50 cells in well enough cells in well.
Sectm1b scored Tnf reporter robust z-score 1.23; fewer than 50 cells in well enough cells in well.
Silencing of Cxcl14 resulted in: Tnf reporter robust z-score -0.03; fewer than 50 cells in well enough cells in well.
Slc22a19 showed Tnf reporter robust z-score 0.07; fewer than 50 cells in well enough cells in well.
For Sox6 the deposit lists fewer than 50 cells in well fewer than 50 cells per well; well left out of calls.
For Or52n5, the values are Tnf reporter robust z-score 0.16; fewer than 50 cells in well enough cells in well.
Depletion of Smr3a #1 came out at: fewer than 50 cells in well fewer than 50 cells per well; well left out of calls.
With knock-down of Smr3a #2, the record shows fewer than 50 cells in well fewer than 50 cells per well; well left out of calls.
B4galnt2 scored Tnf reporter robust z-score -0.36; fewer than 50 cells in well enough cells in well.
